# Measurements from the supplement of paper PMC8728848.
# Some of the results follow.
# B1: Pwp6 (Candida glabrata) (protein)
# chain: MGSSHHHHHHSSGLVPRGSHMASANLPKLTNICQIPDNVKKTSGFKGEIRRIGLFPPGGDYTYLLKFPSTGSTASDTISLTTKPQLSTSGWFPSLFGHTYFIKADLLVYMVAYFVPTETGEYTFKLVNSDDAAVMYVGNPSAFPCGSIDTWPEPRKEDINVCDKISASTKLYMEKGLAYPVRLVWYNGGGDGQFNAQFIDPSGTTHTDWNGYVWQYDACTDCDYK
# Columns and labels:
# Experiment in all cases: glycan array binding signal (z-score within array); higher = stronger binding
# Details in all cases: glycan notation: IUPAC condensed, linker removed
# Fuc(a1-3)GlcNAc = biological target: Fuc(a1-3)GlcNAc
# Procedure, shortened: (§1)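 Glycan array data were curated from 3228 arrays in the Consortium for Functional Glycomics database and kept only where the protein sequence was available. Glycan names were converted to IUPAC-condensed notation, and columns mapping to the same glycan were averaged. The binding signal is a within-array Z-score, averaged across arrays of the same protein sequence at different concentrations or buffers and across linkers. Negative Z-scores can be read as non-binding.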
# [1] = biological target: Fuc(a1-3)[Gal(b1-4)]Glc6S
# Procedure, shortened: as §1
# [2] = biological target: Fuc(a1-3)[Gal(b1-4)]GlcNAc
# Procedure, shortened: as §1
# [3] = biological target: Fuc(a1-3)[Gal(b1-4)]GlcNAc(b1-2)Man
# Procedure, shortened: as §1
# [4] = biological target: Fuc(a1-3)[Gal(b1-4)]GlcNAc(b1-2)Man(a1-3)[Fuc(a1-3)[Gal(b1-4)]GlcNAc(b1-2)Man(a1-6)]Man(b1-4)GlcNAc(b1-4)GlcNAc
# Procedure, shortened: as §1
# [5] = biological target: Fuc(a1-3)[Gal(b1-4)]GlcNAc(b1-2)Man(a1-3)[Fuc(a1-3)[Gal(b1-4)]GlcNAc(b1-2)Man(a1-6)]Man(b1-4)GlcNAc(b1-4)[Fuc(a1-6)]GlcNAc
# Procedure, shortened: as §1
# [6] = biological target: Fuc(a1-3)[Gal(b1-4)]GlcNAc(b1-3)Gal(b1-3)[Fuc(a1-4)]GlcNAc
# Procedure, shortened: as §1
# [7] = biological target: Fuc(a1-3)[Gal(b1-4)]GlcNAc(b1-3)Gal(b1-4)[Fuc(a1-3)]GlcNAc
# Procedure, shortened: as §1
# [8] = biological target: Fuc(a1-3)[Gal(b1-4)]GlcNAc(b1-3)Gal(b1-4)[Fuc(a1-3)]GlcNAc(b1-3)Gal(b1-4)[Fuc(a1-3)]GlcNAc
# Procedure, shortened: as §1
# [9] = biological target: Fuc(a1-3)[Gal(b1-4)]GlcNAc(b1-3)GalNAc
# Procedure, shortened: as §1
# [10] = biological target: Fuc(a1-3)[Gal(b1-4)]GlcNAc(b1-6)GalNAc
# Procedure, shortened: as §1
# [11] = biological target: Fuc(a1-3)[Gal(b1-4)]GlcNAc(b1-6)[Gal(b1-3)GlcNAc(b1-3)]Gal(b1-4)Glc
# Procedure, shortened: as §1
# [12] = biological target: Fuc(a1-3)[Gal(b1-4)]GlcNAc6S
# Procedure, shortened: as §1
# [13] = biological target: Fuc(a1-3)[Gal3S(b1-4)]Glc
# Procedure, shortened: as §1
# [14] = biological target: Fuc(a1-3)[Gal3S(b1-4)]GlcNAc
# Procedure, shortened: as §1
# [15] = biological target: Fuc(a1-3)[Gal3S(b1-4)]GlcNAc6S
# Procedure, shortened: as §1
# [16] = biological target: Fuc(a1-3)[GalNAc(b1-4)]GlcNAc
# Procedure, shortened: as §1
# [17] = biological target: Fuc(a1-3)[GalNAc(b1-4)]GlcNAc6S
# Procedure, shortened: as §1
# Fuc(a1-4)GlcNAc = biological target: Fuc(a1-4)GlcNAc
# Procedure, shortened: as §1
# Fuc(b1-3)GlcNAc = biological target: Fuc(b1-3)GlcNAc
# Procedure, shortened: as §1
# Gal(a1-2)Gal = biological target: Gal(a1-2)Gal
# Procedure, shortened: as §1
# Gal(a1-3)Gal = biological target: Gal(a1-3)Gal
# Procedure, shortened: as §1
# Gal(a1-3)Gal(b1-3)GlcNAc = biological target: Gal(a1-3)Gal(b1-3)GlcNAc
# Procedure, shortened: as §1
# [18] = biological target: Gal(a1-3)Gal(b1-3)GlcNAc(b1-2)Man
# Procedure, shortened: as §1
# [19] = biological target: Gal(a1-3)Gal(b1-3)GlcNAc(b1-2)Man(a1-3)[Gal(a1-3)Gal(b1-3)GlcNAc(b1-2)Man(a1-6)]Man(b1-4)GlcNAc(b1-4)GlcNAc
# Procedure, shortened: as §1
# [20] = biological target: Gal(a1-3)Gal(b1-3)GlcNAc(b1-3)GalNAc
# Procedure, shortened: as §1
# [21] = biological target: Gal(a1-3)Gal(b1-3)GlcNAc(b1-6)GalNAc
# Procedure, shortened: as §1
# [22] = biological target: Gal(a1-3)Gal(b1-3)[Fuc(a1-4)]GlcNAc(b1-2)Man(a1-3)[Gal(a1-3)Gal(b1-3)[Fuc(a1-4)]GlcNAc(b1-2)Man(a1-6)]Man(b1-4)GlcNAc(b1-4)GlcNAc
# Procedure, shortened: as §1
# Gal(a1-3)Gal(b1-4)Glc = biological target: Gal(a1-3)Gal(b1-4)Glc
# Procedure, shortened: as §1
# Gal(a1-3)Gal(b1-4)GlcNAc = biological target: Gal(a1-3)Gal(b1-4)GlcNAc
# Procedure, shortened: as §1
# [23] = biological target: Gal(a1-3)Gal(b1-4)GlcNAc(b1-2)Man
# Procedure, shortened: as §1
# [24] = biological target: Gal(a1-3)Gal(b1-4)GlcNAc(b1-2)Man(a1-3)[Gal(a1-3)Gal(b1-4)GlcNAc(b1-2)Man(a1-6)]Man(b1-4)GlcNAc(b1-4)GlcNAc
# Procedure, shortened: as §1
# [25] = biological target: Gal(a1-3)Gal(b1-4)GlcNAc(b1-3)GalNAc
# Procedure, shortened: as §1
# [26] = biological target: Gal(a1-3)Gal(b1-4)GlcNAc(b1-6)GalNAc
# Procedure, shortened: as §1
# [27] = biological target: Gal(a1-3)Gal(b1-4)[Fuc(a1-3)]GlcNAc
# Procedure, shortened: as §1
# [28] = biological target: Gal(a1-3)Gal(b1-4)[Fuc(a1-3)]GlcNAc(b1-2)Man(a1-3)[Gal(a1-3)Gal(b1-4)[Fuc(a1-3)]GlcNAc(b1-2)Man(a1-6)]Man(b1-4)GlcNAc(b1-4)GlcNAc
# Procedure, shortened: as §1
# Gal(a1-3)GalNAc = biological target: Gal(a1-3)GalNAc
# Procedure, shortened: as §1
# [29] = biological target: Gal(a1-3)[Gal(a1-4)]Gal(b1-4)GlcNAc
# Procedure, shortened: as §1
# [30] = biological target: Gal(a1-4)Gal(b1-3)GlcNAc(b1-2)Man(a1-3)[Gal(a1-4)Gal(b1-3)GlcNAc(b1-2)Man(a1-6)]Man(b1-4)GlcNAc(b1-4)GlcNAc
# Procedure, shortened: as §1
# Gal(a1-4)Gal(b1-4)Glc = biological target: Gal(a1-4)Gal(b1-4)Glc
# Procedure, shortened: as §1
# Gal(a1-4)Gal(b1-4)GlcNAc = biological target: Gal(a1-4)Gal(b1-4)GlcNAc
# Procedure, shortened: as §1
# [31] = biological target: Gal(a1-4)Gal(b1-4)GlcNAc(b1-2)Man(a1-3)[Gal(a1-4)Gal(b1-4)GlcNAc(b1-2)Man(a1-6)]Man(b1-4)GlcNAc(b1-4)GlcNAc
# Procedure, shortened: as §1
# [32] = biological target: Gal(a1-4)Gal(b1-4)GlcNAc(b1-3)Gal(b1-4)Glc
# Procedure, shortened: as §1
# Gal(a1-4)GlcNAc = biological target: Gal(a1-4)GlcNAc
# Procedure, shortened: as §1
# Gal(a1-6)Glc = biological target: Gal(a1-6)Glc
# Procedure, shortened: as §1
binder,measurement,setting,value
B1,glycan array binding signal (z-score),Fuc(a1-3)GlcNAc,-0.741
same,glycan array binding signal (z-score),[1],1.1
same,glycan array binding signal (z-score),[2],-0.796
same,glycan array binding signal (z-score),[3],-0.434
same,glycan array binding signal (z-score),[4],-0.18
same,glycan array binding signal (z-score),[5],-0.155
same,glycan array binding signal (z-score),[6],-0.022
same,glycan array binding signal (z-score),[7],0.02
same,glycan array binding signal (z-score),[8],-0.24
same,glycan array binding signal (z-score),[9],-0.157
same,glycan array binding signal (z-score),[10],0.007
same,glycan array binding signal (z-score),[11],-0.265
same,glycan array binding signal (z-score),[12],0.39
same,glycan array binding signal (z-score),[13],-0.358
same,glycan array binding signal (z-score),[14],-0.595
same,glycan array binding signal (z-score),[15],-0.723
same,glycan array binding signal (z-score),[16],-0.34
same,glycan array binding signal (z-score),[17],0.126
same,glycan array binding signal (z-score),Fuc(a1-4)GlcNAc,-0.712
same,glycan array binding signal (z-score),Fuc(b1-3)GlcNAc,-0.751
same,glycan array binding signal (z-score),Gal(a1-2)Gal,-0.745
same,glycan array binding signal (z-score),Gal(a1-3)Gal,0.776
same,glycan array binding signal (z-score),Gal(a1-3)Gal(b1-3)GlcNAc,-0.768
same,glycan array binding signal (z-score),[18],-0.557
same,glycan array binding signal (z-score),[19],0.254
same,glycan array binding signal (z-score),[20],-0.268
same,glycan array binding signal (z-score),[21],-0.137
same,glycan array binding signal (z-score),[22],1.15
same,glycan array binding signal (z-score),Gal(a1-3)Gal(b1-4)Glc,-0.487
same,glycan array binding signal (z-score),Gal(a1-3)Gal(b1-4)GlcNAc,-0.684
same,glycan array binding signal (z-score),[23],-0.387
same,glycan array binding signal (z-score),[24],0.491
same,glycan array binding signal (z-score),[25],-0.062
same,glycan array binding signal (z-score),[26],0.221
same,glycan array binding signal (z-score),[27],-0.637
same,glycan array binding signal (z-score),[28],1.96
same,glycan array binding signal (z-score),Gal(a1-3)GalNAc,-0.551
same,glycan array binding signal (z-score),[29],-0.638
same,glycan array binding signal (z-score),[30],0.15
same,glycan array binding signal (z-score),Gal(a1-4)Gal(b1-4)Glc,-0.407
same,glycan array binding signal (z-score),Gal(a1-4)Gal(b1-4)GlcNAc,-0.715
same,glycan array binding signal (z-score),[31],1.05
same,glycan array binding signal (z-score),[32],-0.294
same,glycan array binding signal (z-score),Gal(a1-4)GlcNAc,-0.819
same,glycan array binding signal (z-score),Gal(a1-6)Glc,-0.322

# In a second layout: results already given
binder	measurement	setting	value
B1	glycan array binding signal (z-score)	[4]	-0.18
same	glycan array binding signal (z-score)	[5]	-0.155
